The list shows only some results of the screen, not a fair sample: it is rich in T/C values a quarter to a half above the control, in often repeated tests (any T/C) and in doses without a T/C. Other doses and runs of a compound stand elsewhere. T/C: endpoint of the treated group in % of that of the vehicle group. Some doses have a count of surviving animals in place of a T/C: the source holds a T/C of zero for them, seemingly a mark for toxic or unscored doses. Some survivor counts are full or nearly so, which does not show that the dose was tolerated: survival well below the control is almost never listed, so the zero probably covers shortened survival too. Survivors were counted at the toxicity check, usually on the fifth day, unless a day is given; later deaths do not show. Schedule codes are those of the source, read here as Q, the interval in days (D) or hours (H), X, the number of doses. Where survival is the endpoint, the PubChem record calls one and a half times the control and up active, and a quarter to a half above the control has no call in these data; cut-offs in other NCI protocols can differ. Some entries were tested several times; their values stand side by side, smallest first. Some schedules carry Z or #; the key to these is not given.
Test system: L1210 leukemia ip in BDF1 mice, survival T/C
Assay: NCI In Vivo Anticancer Drug Screen. Data for tumor model L1210 Leukemia (intraperitoneal) in B6D2F1 (BDF1) mice
Conditions: T/C endpoint: mean survival time, higher T/C = longer survival

Question: `O=NN(CCCl)C(=O)NC1CCCCC1` was tested. Which T/C (dose: 0.25 mg/kg/injection, schedule: Q03HX024 (oral), vehicle: saline) did it give?
Answer: The T/C was 138 % of control.

Question: What about the T/C (dose: 2.0 mg/kg/injection, schedule: Q01DX Z (ip), vehicle: carboxymethylcellulose (CMC)) of the same compound?
Answer: The T/C was 133 % of control.

Question: What about the T/C (dose: 3.12 mg/kg/injection, schedule: Q01DX009 (ip), vehicle: carboxymethylcellulose (CMC)) of the same compound?
Answer: The T/C was 125 % of control.

Question: And the T/C (dose: 3.12 mg/kg/injection, schedule: Q01DX017 (ip), vehicle: carboxymethylcellulose (CMC))?
Answer: Its T/C is 130 % of control.

Question: What about the T/C (dose: 3.12 mg/kg/injection, schedule: Q03HX008 (ip), vehicle: carboxymethylcellulose (CMC)) of the same compound?
Answer: The T/C was 127 % of control.

Question: What about the T/C (dose: 4.0 mg/kg/injection, schedule: Q01DX005 (oral), vehicle: saline) of the same compound?
Answer: Its T/C is 138 % of control.

Question: What about the T/C (dose: 4.0 mg/kg/injection, schedule: Q01DX009 (ip), vehicle: saline with Tween-80) of the same compound?
Answer: The T/C was 127 % of control.

Question: And the T/C (dose: 4.0 mg/kg/injection, schedule: Q01DX Z (ip), vehicle: carboxymethylcellulose (CMC))?
Answer: The T/C was 141 % of control.

Question: What about the survivor count (dose: 4.0 mg/kg/injection, schedule: Q03HX008 (ip), vehicle: saline) of the same compound?
Answer: The survivor count was 8 of 10.

Question: And the T/C (dose: 4.2 mg/kg/injection, schedule: Q01DX015 (ip), vehicle: carboxymethylcellulose (CMC))?
Answer: Its T/C is 134 % of control.

Question: And the T/C (dose: 6.0 mg/kg/injection, schedule: Q01DX001 (ip), vehicle: carboxymethylcellulose (CMC))?
Answer: The T/C was 110, 113, 114, 115, 118 % of control.

Question: And the T/C (dose: 6.0 mg/kg/injection, schedule: Q01DX003 (ip), vehicle: carboxymethylcellulose (CMC))?
Answer: Its T/C is 127 % of control.

Question: And the T/C (dose: 6.0 mg/kg/injection, schedule: Q01DX004 (ip), vehicle: carboxymethylcellulose (CMC))?
Answer: The T/C was 133 % of control.

Question: What about the T/C (dose: 6.0 mg/kg/injection, schedule: Q01DX005 (ip), vehicle: carboxymethylcellulose (CMC)) of the same compound?
Answer: The T/C was 145 % of control.

Question: What about the T/C (dose: 6.0 mg/kg/injection, schedule: Q02DX004 (ip), vehicle: carboxymethylcellulose (CMC)) of the same compound?
Answer: The T/C was 145 % of control.

Question: What about the T/C (dose: 6.0 mg/kg/injection, schedule: Q02DX008 (ip), vehicle: carboxymethylcellulose (CMC)) of the same compound?
Answer: The T/C was 126 % of control.

Question: What about the T/C (dose: 6.2 mg/kg/injection, schedule: Q## X015 (ip), vehicle: carboxymethylcellulose (CMC)) of the same compound?
Answer: Its T/C is 137 % of control.

Question: And the T/C (dose: 6.25 mg/kg/injection, schedule: Q01DX001 (ip), vehicle: Klucel (hydroxypropylcellulose) (HPC))?
Answer: The T/C was 132 % of control.

Question: What about the T/C (dose: 6.25 mg/kg/injection, schedule: Q04DX003 (ip), vehicle: carboxymethylcellulose (CMC)) of the same compound?
Answer: Its T/C is 128 % of control.

Question: What about the T/C (dose: 6.25 mg/kg/injection, schedule: Q04DX005 (ip), vehicle: carboxymethylcellulose (CMC)) of the same compound?
Answer: The T/C was 145 % of control.

Question: And the T/C (dose: 7.5 mg/kg/injection, schedule: Q01DX001 (iv), vehicle: clinical formulation)?
Answer: The T/C was 134 % of control.

Question: What about the T/C (dose: 8.0 mg/kg/injection, schedule: Q01DX005 (oral), vehicle: saline) of the same compound?
Answer: Its T/C is 139 % of control.

Question: What about the T/C (dose: 8.0 mg/kg/injection, schedule: Q01DX009 (ip), vehicle: saline with Tween-80) of the same compound?
Answer: Its T/C is 147 % of control.

Question: And the T/C (dose: 8.0 mg/kg/injection, schedule: Q01DX009 (oral), vehicle: saline)?
Answer: The T/C was 143 % of control.

Question: And the T/C (dose: 8.0 mg/kg/injection, schedule: Q01DX Z (ip), vehicle: carboxymethylcellulose (CMC))?
Answer: The T/C was 146 % of control.

Question: What about the T/C (dose: 8.2 mg/kg/injection, schedule: Q01DX009 (ip), vehicle: Klucel (hydroxypropylcellulose) (HPC)) of the same compound?
Answer: The T/C was 136 % of control.

Question: And the T/C (dose: 9.0 mg/kg/injection, schedule: Q01DX001 (ip), vehicle: carboxymethylcellulose (CMC))?
Answer: The T/C was 132, 151, 152, 153, 208 % of control.

Question: And the T/C (dose: 9.0 mg/kg/injection, schedule: Q## X004 (ip), vehicle: carboxymethylcellulose (CMC))?
Answer: The T/C was 132 % of control.

Question: What about the T/C (dose: 10.0 mg/kg/injection, schedule: Q01DX001 (ip), vehicle: saline) of the same compound?
Answer: Its T/C is 141 % of control.

Question: What about the T/C (dose: 10.0 mg/kg/injection, schedule: Q01DX001 (iv), vehicle: saline) of the same compound?
Answer: The T/C was 145 % of control.

Question: And the T/C (dose: 10.0 mg/kg/injection, schedule: Q01DX001 (oral), vehicle: saline)?
Answer: The T/C was 125 % of control.

Question: What about the T/C (dose: 10.0 mg/kg/injection, schedule: Q## X001 (ip), vehicle: carboxymethylcellulose (CMC)) of the same compound?
Answer: The T/C was 143 % of control.

Question: And the T/C (dose: 10.0 mg/kg/injection, schedule: Q## X032 (ip), vehicle: carboxymethylcellulose (CMC))?
Answer: Its T/C is 135 % of control.

Question: What about the T/C (dose: 11.0 mg/kg/injection, schedule: Q## X032 (ip), vehicle: carboxymethylcellulose (CMC)) of the same compound?
Answer: Its T/C is 131 % of control.

Question: What about the T/C (dose: 11.2 mg/kg/injection, schedule: Q## X032 (ip), vehicle: carboxymethylcellulose (CMC)) of the same compound?
Answer: Its T/C is 129 % of control.

Question: And the T/C (dose: 12.0 mg/kg/injection, schedule: Q01DX001 (ip), vehicle: carboxymethylcellulose (CMC))?
Answer: The T/C was 157, 158, 166, 237, 282 % of control.

Question: What about the T/C (dose: 12.0 mg/kg/injection, schedule: Q## X032 (ip), vehicle: carboxymethylcellulose (CMC)) of the same compound?
Answer: The T/C was 145 % of control.

Question: And the T/C (dose: 12.5 mg/kg/injection, schedule: Q01DX001 (ip), vehicle: Klucel (hydroxypropylcellulose) (HPC))?
Answer: Its T/C is 140 % of control.

Question: And the T/C (dose: 12.5 mg/kg/injection, schedule: Q01DX001 (ip), vehicle: carboxymethylcellulose (CMC), evaluated on day 45)?
Answer: The T/C was 153, 179, 190, 203 % of control.

Question: And the T/C (dose: 12.5 mg/kg/injection, schedule: Q01DX001 (ip), vehicle: carboxymethylcellulose (CMC), run until all animals had died)?
Answer: The T/C was 138, 148, 163 % of control.

Question: And the T/C (dose: 12.5 mg/kg/injection, schedule: Q01DX001 (oral), vehicle: carboxymethylcellulose (CMC))?
Answer: Its T/C is 138 % of control.

Question: And the T/C (dose: 15.0 mg/kg/injection, schedule: Q01DX001 (iv), vehicle: saline)?
Answer: The T/C was 134 % of control.

Question: And the T/C (dose: 19.4 mg/kg/injection, schedule: Q01DX001 (ip), vehicle: carboxymethylcellulose (CMC))?
Answer: The T/C was 145 % of control.

Question: And the T/C (dose: 20.0 mg/kg/injection, schedule: Q01DX001 (ip), vehicle: saline)?
Answer: The T/C was 138 % of control.

Question: And the T/C (dose: 22.0 mg/kg/injection, schedule: Q01DX001 (ip), vehicle: other)?
Answer: Its T/C is 142 % of control.

Question: And the survivor count (dose: 22.0 mg/kg/injection, schedule: Q01DX001 (iv), vehicle: clinical formulation)?
Answer: The survivor count was 3 of 6.

Question: And the T/C (dose: 25.0 mg/kg/injection, schedule: Q01DX001 (ip), vehicle: Klucel (hydroxypropylcellulose) (HPC), evaluated on day 30)?
Answer: The T/C was 171 and 226 % of control.

Question: What about the T/C (dose: 25.0 mg/kg/injection, schedule: Q01DX001 (ip), vehicle: Klucel (hydroxypropylcellulose) (HPC), evaluated on day 60) of the same compound?
Answer: Its T/C is 550 and 595 % of control.

Question: And the T/C (dose: 25.0 mg/kg/injection, schedule: Q01DX001 (ip), vehicle: carboxymethylcellulose (CMC), evaluated on day 45)?
Answer: Its T/C is 446, 459, 494 % of control.

Question: What about the T/C (dose: 25.0 mg/kg/injection, schedule: Q01DX001 (ip), vehicle: carboxymethylcellulose (CMC), run until all animals had died) of the same compound?
Answer: The T/C was 194, 202, 204, 241, 301, 509 % of control.

Question: And the T/C (dose: 25.0 mg/kg/injection, schedule: Q01DX Z (ip), vehicle: carboxymethylcellulose (CMC))?
Answer: The T/C was 149 % of control.

Question: And the T/C (dose: 27.0 mg/kg/injection, schedule: Q## X032 (ip), vehicle: carboxymethylcellulose (CMC))?
Answer: The T/C was 149 % of control.

Question: What about the survivor count (dose: 32.0 mg/kg/injection, schedule: Q01DX009 (oral), vehicle: saline) of the same compound?
Answer: Its survivor count is 10 of 10.

Question: What about the T/C (dose: 33.0 mg/kg/injection, schedule: Q01DX001 (ip), vehicle: carboxymethylcellulose (CMC), evaluated on day 46) of the same compound?
Answer: The T/C was 519 % of control.

Question: And the T/C (dose: 33.0 mg/kg/injection, schedule: Q01DX001 (ip), vehicle: carboxymethylcellulose (CMC), evaluated on day 60)?
Answer: The T/C was 605, 645, 859 % of control.

Question: What about the survivor count (dose: 33.0 mg/kg/injection, schedule: Q01DX001 (iv), vehicle: clinical formulation) of the same compound?
Answer: Its survivor count is 3 of 6.
